The target of this assay is T1, endogenous STAT1 (rat (endogenous in subchondral bone MSCs)) (UniProt Q9QXK0).
T1 sequence: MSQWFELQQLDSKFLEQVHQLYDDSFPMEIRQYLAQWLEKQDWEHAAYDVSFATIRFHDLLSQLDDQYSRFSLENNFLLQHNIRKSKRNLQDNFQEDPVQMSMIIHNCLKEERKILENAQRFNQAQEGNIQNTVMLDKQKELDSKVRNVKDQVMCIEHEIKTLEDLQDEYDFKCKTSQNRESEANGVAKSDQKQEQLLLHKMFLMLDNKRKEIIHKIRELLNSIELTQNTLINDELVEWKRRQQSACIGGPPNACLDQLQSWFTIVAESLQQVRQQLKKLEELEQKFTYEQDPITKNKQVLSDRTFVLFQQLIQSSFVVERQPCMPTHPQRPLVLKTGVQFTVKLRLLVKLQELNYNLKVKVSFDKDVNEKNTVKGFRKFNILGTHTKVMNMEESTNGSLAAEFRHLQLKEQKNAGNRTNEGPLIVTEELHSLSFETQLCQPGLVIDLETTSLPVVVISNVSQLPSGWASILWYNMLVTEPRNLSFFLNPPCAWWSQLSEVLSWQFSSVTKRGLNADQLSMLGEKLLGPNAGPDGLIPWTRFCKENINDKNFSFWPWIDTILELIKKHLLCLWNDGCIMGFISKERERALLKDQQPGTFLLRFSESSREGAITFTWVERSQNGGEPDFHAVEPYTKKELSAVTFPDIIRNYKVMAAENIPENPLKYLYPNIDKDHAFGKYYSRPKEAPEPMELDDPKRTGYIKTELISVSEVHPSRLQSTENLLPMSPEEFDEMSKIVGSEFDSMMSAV
Briefly: co-IP; whole cell extracts of MSCs (control, force, force with Piezo1 siRNA); lysates with the specified antibodies overnight at 4 °C, protein A/G plus agarose 2 h at 4 °C, western blot. For orientation: Immunoblotting shows a protein as a band on a membrane.

Our source for the binding values is paper PMC11961634.

These are yes or no findings as the source states them, for the method shown. In cells and extracts the contact can be indirect. Binding calls can cover weak binding; strength is not graded here.

Turning to endogenous CaMKII (enzyme), the binding entry was “binds”.
